# Results from publication doi:10.1101/2021.09.15.460553.
# Chains of the proteins cited; added tags and fusions are not shown.
# UniProt Q96LD4: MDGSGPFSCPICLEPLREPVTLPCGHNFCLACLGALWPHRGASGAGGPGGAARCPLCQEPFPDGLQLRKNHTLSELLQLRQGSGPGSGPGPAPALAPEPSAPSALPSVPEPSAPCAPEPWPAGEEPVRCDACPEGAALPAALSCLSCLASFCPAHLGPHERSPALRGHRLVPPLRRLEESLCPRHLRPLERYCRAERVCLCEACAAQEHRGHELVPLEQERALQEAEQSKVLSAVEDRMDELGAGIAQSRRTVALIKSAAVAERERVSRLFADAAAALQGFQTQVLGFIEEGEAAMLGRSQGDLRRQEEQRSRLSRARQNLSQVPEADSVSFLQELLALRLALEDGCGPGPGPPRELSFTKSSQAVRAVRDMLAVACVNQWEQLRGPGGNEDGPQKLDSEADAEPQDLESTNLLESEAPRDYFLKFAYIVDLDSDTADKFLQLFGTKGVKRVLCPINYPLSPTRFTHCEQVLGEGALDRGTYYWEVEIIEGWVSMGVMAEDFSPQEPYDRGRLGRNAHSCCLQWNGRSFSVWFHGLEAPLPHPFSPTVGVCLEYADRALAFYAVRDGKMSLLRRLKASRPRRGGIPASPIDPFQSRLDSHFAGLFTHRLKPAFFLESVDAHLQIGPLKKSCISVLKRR
# UniProt P25963: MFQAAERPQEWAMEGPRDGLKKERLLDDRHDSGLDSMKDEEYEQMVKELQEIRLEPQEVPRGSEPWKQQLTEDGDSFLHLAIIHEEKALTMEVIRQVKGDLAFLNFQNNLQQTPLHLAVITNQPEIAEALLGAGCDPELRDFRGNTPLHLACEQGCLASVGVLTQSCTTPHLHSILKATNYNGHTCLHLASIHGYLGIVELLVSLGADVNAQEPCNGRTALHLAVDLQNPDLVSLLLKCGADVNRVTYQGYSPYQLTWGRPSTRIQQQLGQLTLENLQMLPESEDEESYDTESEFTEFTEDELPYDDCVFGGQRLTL
# UniProt Q9Y6K9: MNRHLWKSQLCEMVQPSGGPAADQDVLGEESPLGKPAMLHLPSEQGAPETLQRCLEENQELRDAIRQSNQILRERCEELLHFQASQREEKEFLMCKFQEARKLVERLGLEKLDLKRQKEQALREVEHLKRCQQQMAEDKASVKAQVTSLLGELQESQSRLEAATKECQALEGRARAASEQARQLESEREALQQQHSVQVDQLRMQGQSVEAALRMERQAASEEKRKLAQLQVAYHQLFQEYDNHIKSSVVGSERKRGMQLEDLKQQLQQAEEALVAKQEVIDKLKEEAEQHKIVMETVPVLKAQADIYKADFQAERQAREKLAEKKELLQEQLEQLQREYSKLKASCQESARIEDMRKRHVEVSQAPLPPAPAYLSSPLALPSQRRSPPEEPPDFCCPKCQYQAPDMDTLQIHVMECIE
# No constants are given. Whether binding was seen depends on the method and setting. Binding seen in cells or lysates may run through a third protein.
# B1: TAK1 (protein, UniProt O43318 1-606)
# chain: MSTASAASSSSSSSAGEMIEAPSQVLNFEEIDYKEIEVEEVVGRGAFGVVCKAKWRAKDVAIKQIESESERKAFIVELRQLSRVNHPNIVKLYGACLNPVCLVMEYAEGGSLYNVLHGAEPLPYYTAAHAMSWCLQCSQGVAYLHSMQPKALIHRDLKPPNLLLVAGGTVLKICDFGTACDIQTHMTNNKGSAAWMAPEVFEGSNYSEKCDVFSWGIILWEVITRRKPFDEIGGPAFRIMWAVHNGTRPPLIKNLPKPIESLMTRCWSKDPSQRPSMEEIVKIMTHLMRYFPGADEPLQYPCQYSDEGQSNSATSTGSFMDIASTNTSNKSDTNMEQVPATNDTIKRLESKLLKNQAKQQSESGRLSLGASRGSSVESLPPTSEGKRMSADMSEIEARIAATTAYSKPKRGHRKTASFGNILDVPEIVISGNGQPRRRSIQDLTVTGTEPGQVSSRSSSPSVRMITTSGPTSEKPTRSHPWTPDDSTDTNGSDNSIPMAYLTLDHQLQPLAPCPNSKESMAVFEQHCKMAQEYMKVQTEIALLLQRKQELVAELDQDEKDQQNTSRLVQEHKKLLDENKSLSTYYQQCKKQLEVIRSQQQKRQGTS
# Biological target: Flag-tagged TRIM47 (human) (UniProt Q96LD4)
# Test: co-IP
row,Molecule,binding
1,IκBα (from UniProt P25963 1-317),no binding
2,IKKγ (from UniProt Q9Y6K9 1-419),no binding
3,B1,no binding
